Patent US20210179683A1, “METHOD OF RESPONSE PREDICTION FOR BCL2 FAMILY PROTEIN TARGETING DRUG” (Proteina Co., Ltd., priority 2019, published 2021)
At least one compound was matched to its structure with a doubt left.

The chains behind the UniProt entries cited, without tags or fusion partners.
UniProt P10415, whole entry: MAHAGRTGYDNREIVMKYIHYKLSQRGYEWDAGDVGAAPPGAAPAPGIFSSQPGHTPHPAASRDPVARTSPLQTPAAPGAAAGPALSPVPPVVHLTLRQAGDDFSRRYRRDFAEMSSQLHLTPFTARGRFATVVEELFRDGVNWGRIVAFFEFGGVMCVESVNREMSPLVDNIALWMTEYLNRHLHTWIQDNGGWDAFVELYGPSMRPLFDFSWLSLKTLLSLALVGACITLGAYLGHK

Tests used:
BCL2 = BCL2 expression level in drug-treated cells; conditions: OCI-LY3 cells, 24 hours
BAX = BAX level after forced N-terminus exposure with Triton X-100 in lysates of drug-treated cells; format: cell-based, human
Text: (§1) In order to achieve this Example, a specimen may be prepared by artificially inducing apoptosis.

BAX (N-terminus exposed) = test: Detection of N-terminus exposed (active conformation) BAX in GDN lysates of drug-treated cells; format: cell-based, human
Text: as §1

BCL2-BIM complex = molecular target: T1, BCL2-BIM complex (Homo sapiens, UniProt P10415); test: Endogenous BCL2-BIM complex counts after incubation of OCI-LY3 cells with drug; format: cell-based; conditions: 100 nM
T1 construct: endogenous in cells; host or cells: OCI-LY3

BCL2-BAD interaction = molecular target: T2, BCL2-BAD interaction (Homo sapiens, UniProt P10415); test: PPI between endogenous BCL2 of drug-treated cells and exogenous BAD-GFP (single-molecule pull-down, TIRF); format: cell-based; conditions: 24 hours
T2 construct: endogenous in cells; host or cells: HL60, OCI-LY3
Experimental: Blood cancer cells (The Korean Cell Line Bank and ATCC; HL-60 (CVCL_0002), OCI-LY3 (CVCL_8800)), Ramos (CVCL_0597), U937, THP1, and SUDHL8) and the blood cancer cell pellets from buffy coats of patients were each suspended in a lysis buffer (HEPES 50 mM NaCl 150 mM Glycerol 10% (w/v) GDN (Digitonin) 1% (w/v) with 2% (w/v) phosphatase inhibitor cocktail ⅔ (P5726, P0044)) and vortexed three times at regular intervals of 10 min. After 30 min, the lysis buffer containing the pellet homogenate was centrifuged at 15,000 g for 10 min. The supernatant thus formed was used as an analysis lysate to be applied to a substrate in subsequent experiments. […]
The cell lysate, prepared in Example 1.2, containing the probe-labeled first protein-interacting protein was added to the substrate prepared in Example 1.3. […] Then, protein-protein interactions were measured as follows:
The substrate was fixedly mounted on a total internal reflection fluorescence and imaged to obtain data for protein-protein interaction (binding). […]
For example, the method proposed in this Example can quantitatively measure changes in PPI intensity and complex formation after and before treatment with BCL2-targeting inhibitors. […]

BCL2-BIM interaction = BCL2-BIM interaction (Homo sapiens, UniProt P10415); test: BCL2-BIM PPI counts after incubation of OCI-LY3 cells with drug; format: cell-based; parameters: PPI counts between BCL2, MCL1, or BCL-XL, all endogenous to the samples from patient 1, and exogenous BIM; from tissue; host or cells: bone marrow and whole blood of blood cancer patients; conditions: 100 nM

CC1(C)CCC(CN2CCN(c3ccc(C(=O)NS(=O)(=O)c4ccc(NCC5CCOCC5)c([N+](=O)[O-])c4)c(Oc4cnc5[nH]ccc5c4)c3)CC2)=C(c2ccc(Cl)cc2)C1 [venetoclax] was tested, and the “expression level of BCL2” value (BCL2) was “does not incite a significant change”, the BAX amount (BAX; HL60 or OCI-LY3, 100 nM venetoclax for 2, 4, 8, or 24 hrs, lysate mixed with Triton X-100 1%) was “almost no changes” and the “detergent-activated BAX level (BAX expression level)” value (BAX; HL60 or OCI-LY3 incubated with venetoclax, cell lysate treated with TX-100) was “remain at a similar level”. For the same compound, the “N-terminus-exposed BAX after artificial exposure with Triton X-100” value (BAX; Staurosporine for one hour or venetoclax for 24 hours, lysis buffer containing Triton X-100) was “constant values”, the “BAX detection signals (N-terminus exposure of BAX)” value (BAX (N-terminus exposed); HL60 or OCI-LY3, 100 nM venetoclax for 2, 4, 8, or 24 hrs, GDN lysate) was “changed with time” and the “level of BAX having the N-terminus revealed” value (BAX (N-terminus exposed); HL60 or OCI-LY3 cells incubated with venetoclax) was “increased”. The “N-terminus exposed BAX signals” value (BAX (N-terminus exposed); Staurosporine for one hour or venetoclax for 24 hours, lysis buffer containing GDN) was “increased signals”, the BCL2-BIM complex counts (BCL2-BIM complex) was “decrease” and the “BCL2-BAD PPI intensity” value (BCL2-BAD interaction; HL60 and OCI-LY3 cells, 100 nM, vs DMSO) was “increase”. For the same compound, the “BCL2-BAD interaction (PPI)” value (BCL2-BAD interaction; OCI-LY3 cells, vs non-treated group) was “higher” and the “BCL2-BIM PPI counts” value (BCL2-BIM interaction) was “increase”.
